Test results: paper PMC10604066

By UniProt entry, the sequences of proteins in these tests, tags left out. Where a name states a change or a piece, a line headed by the entry shows the natural chain unless it says otherwise. Residues count along the entry.
UniProt P49107, residues 87-171: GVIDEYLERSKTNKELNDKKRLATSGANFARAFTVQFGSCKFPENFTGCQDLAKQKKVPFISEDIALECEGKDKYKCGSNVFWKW
UniProt Q9C944: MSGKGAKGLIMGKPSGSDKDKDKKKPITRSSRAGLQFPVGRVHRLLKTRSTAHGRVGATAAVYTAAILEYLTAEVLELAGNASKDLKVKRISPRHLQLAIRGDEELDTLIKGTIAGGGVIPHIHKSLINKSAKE
UniProt Q9SY97, residues 40-273: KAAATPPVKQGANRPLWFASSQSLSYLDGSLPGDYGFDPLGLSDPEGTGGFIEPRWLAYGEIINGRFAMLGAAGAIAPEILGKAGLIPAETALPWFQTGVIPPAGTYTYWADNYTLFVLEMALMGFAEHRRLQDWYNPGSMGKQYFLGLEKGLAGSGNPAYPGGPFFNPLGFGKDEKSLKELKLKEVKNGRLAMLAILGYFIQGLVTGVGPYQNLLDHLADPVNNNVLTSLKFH
UniProt Q9SYW8, residues 44-257: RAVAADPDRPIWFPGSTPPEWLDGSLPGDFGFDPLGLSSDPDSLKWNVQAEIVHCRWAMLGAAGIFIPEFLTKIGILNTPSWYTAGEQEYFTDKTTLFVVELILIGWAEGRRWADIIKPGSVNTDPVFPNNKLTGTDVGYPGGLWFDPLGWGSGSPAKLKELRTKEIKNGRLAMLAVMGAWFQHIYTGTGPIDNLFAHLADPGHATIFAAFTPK
UniProt Q949Q5, residues 52-140: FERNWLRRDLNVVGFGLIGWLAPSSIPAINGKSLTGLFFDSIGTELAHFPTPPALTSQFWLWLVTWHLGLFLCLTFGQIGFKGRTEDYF
UniProt Q9S831, residues 45-143: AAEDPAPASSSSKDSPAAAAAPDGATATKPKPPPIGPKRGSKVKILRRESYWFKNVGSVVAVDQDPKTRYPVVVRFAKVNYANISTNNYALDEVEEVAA
UniProt Q01667, residues 36-241: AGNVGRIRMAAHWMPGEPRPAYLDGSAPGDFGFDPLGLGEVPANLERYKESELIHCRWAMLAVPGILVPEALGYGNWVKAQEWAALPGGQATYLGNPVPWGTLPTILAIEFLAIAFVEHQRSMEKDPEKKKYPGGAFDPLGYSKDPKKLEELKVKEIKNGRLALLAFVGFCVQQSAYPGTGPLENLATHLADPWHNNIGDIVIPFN
UniProt Q9S7H1, residues 46-208: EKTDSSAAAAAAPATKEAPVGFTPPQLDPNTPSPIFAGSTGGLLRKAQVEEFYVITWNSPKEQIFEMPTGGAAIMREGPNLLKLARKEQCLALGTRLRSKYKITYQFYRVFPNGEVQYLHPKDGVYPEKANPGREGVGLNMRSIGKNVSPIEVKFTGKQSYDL
UniProt P56757: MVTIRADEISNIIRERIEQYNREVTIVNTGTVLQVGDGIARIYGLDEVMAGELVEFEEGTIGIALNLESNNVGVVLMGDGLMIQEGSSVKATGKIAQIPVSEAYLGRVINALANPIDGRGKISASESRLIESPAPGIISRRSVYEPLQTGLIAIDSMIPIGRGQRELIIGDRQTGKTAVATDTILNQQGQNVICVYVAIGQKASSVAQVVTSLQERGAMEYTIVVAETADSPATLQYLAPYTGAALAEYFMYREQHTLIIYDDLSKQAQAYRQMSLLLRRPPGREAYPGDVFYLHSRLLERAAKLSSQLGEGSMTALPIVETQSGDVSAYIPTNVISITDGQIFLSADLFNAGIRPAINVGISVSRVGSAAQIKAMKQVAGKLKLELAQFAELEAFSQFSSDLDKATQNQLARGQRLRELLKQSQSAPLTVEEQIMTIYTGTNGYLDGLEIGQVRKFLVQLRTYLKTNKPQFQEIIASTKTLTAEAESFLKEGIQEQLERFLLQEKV
UniProt Q8W4H7: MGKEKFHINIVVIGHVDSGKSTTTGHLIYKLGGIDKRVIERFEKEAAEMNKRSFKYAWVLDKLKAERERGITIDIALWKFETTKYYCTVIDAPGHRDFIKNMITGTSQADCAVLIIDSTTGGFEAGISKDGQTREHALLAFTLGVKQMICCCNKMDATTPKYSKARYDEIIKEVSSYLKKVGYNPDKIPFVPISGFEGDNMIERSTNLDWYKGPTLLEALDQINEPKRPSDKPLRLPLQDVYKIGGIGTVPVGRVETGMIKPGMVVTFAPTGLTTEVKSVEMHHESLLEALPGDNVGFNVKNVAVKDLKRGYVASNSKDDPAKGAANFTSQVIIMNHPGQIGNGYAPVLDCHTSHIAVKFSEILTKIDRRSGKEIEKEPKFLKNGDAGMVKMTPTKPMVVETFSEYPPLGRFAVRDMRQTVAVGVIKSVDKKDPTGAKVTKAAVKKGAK
UniProt P56773: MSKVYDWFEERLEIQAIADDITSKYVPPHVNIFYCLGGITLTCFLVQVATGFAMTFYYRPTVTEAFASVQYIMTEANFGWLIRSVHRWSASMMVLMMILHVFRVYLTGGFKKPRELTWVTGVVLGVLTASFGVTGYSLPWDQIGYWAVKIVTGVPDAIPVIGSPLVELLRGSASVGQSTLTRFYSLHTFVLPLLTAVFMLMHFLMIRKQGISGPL
UniProt P56766: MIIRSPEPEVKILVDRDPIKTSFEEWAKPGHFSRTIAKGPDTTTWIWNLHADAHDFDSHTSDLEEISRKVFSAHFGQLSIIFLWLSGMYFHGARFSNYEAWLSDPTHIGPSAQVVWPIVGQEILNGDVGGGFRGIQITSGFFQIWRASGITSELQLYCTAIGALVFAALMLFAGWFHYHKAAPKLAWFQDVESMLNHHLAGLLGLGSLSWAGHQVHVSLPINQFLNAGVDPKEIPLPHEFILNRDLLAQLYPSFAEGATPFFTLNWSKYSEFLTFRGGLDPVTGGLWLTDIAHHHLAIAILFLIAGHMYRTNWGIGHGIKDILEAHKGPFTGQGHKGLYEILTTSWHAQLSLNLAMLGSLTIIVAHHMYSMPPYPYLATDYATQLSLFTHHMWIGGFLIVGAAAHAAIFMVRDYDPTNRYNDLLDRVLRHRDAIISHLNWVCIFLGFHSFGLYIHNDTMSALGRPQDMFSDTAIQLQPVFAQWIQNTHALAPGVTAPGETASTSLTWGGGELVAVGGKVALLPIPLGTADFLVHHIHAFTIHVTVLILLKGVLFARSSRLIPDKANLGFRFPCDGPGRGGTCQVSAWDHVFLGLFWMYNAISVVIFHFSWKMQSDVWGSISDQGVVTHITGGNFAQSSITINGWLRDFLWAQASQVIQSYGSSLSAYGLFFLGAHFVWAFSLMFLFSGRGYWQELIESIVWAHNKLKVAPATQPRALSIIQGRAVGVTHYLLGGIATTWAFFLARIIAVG
UniProt Q9S7N7, residues 61-160: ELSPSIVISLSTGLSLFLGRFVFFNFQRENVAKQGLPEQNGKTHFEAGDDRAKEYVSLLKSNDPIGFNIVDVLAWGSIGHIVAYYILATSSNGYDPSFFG
UniProt P56767: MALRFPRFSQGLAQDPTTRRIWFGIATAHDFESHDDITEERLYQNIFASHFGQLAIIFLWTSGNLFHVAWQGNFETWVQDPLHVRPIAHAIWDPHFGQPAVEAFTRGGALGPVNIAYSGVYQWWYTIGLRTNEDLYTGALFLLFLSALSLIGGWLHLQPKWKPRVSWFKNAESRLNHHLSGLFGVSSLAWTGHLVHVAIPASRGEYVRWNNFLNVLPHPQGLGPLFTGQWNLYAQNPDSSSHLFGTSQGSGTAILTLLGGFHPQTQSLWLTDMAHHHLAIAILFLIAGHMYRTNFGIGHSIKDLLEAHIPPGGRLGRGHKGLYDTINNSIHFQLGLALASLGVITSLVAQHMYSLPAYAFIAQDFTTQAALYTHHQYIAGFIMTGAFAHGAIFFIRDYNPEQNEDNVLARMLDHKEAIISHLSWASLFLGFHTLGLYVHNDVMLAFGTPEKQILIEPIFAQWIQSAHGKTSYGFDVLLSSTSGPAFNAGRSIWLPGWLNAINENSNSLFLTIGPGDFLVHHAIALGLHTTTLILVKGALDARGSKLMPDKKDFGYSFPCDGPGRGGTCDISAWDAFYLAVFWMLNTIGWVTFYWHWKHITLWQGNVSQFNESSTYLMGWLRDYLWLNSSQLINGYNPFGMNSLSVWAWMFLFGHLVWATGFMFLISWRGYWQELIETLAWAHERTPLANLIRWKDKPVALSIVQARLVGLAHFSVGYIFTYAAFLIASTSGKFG

B1: Protein plastid transcriptionally active 16, chloroplastic (protein, UniProt Q9STF2 20-510)
chain: FNRRKPRLTVWAKQTAFQLGKTKGDDDSEGKQKGKNPFQFDFGKLPDMKSLIPVVTNPSTGLVFGNNRKKDPGTIFVAGATGQAGIRIAQTLLQRGFSVRAGVPDLGAAQDLARVAATYKILSNDEVKRLNAVQSPFQDAESIAKAIGNATKVVVTVGATENGPDAQVSTSDALLVVQAAELAGVSHVAIVYDGTISGSTYNVLDGITSFFGNLFAKSQPLTISDLIEKVAQTDVAYTLIKTSLTEDFSPEKAYNVVVSAEGSNSGSGSSSSEAYKVPKLKIASLVADIFANTAVAENKVVEVSTDPSAPSRPVDELFSVIPEDGRRKVYADAIARERAEEEAKVAADKAREAAEAAKEFEKQMQKLSEKEAEAASLAEDAQQKADAVGVTVDGLFNKAKDISSGLSWNKLGSQFATAIQNASETPKVQVATVRGQAKARNLPPKKAVVKQRPSSPFASKPKEERPKKPEKEVRKVFGGLFKQETIYIDDD
B2: Ferredoxin--NADP reductase, leaf isozyme 1, chloroplastic (enzyme, UniProt Q9FKW6 50-360)
chain: VTTDTTEAPPVKVVKESKKQEEGIVVNKFKPKNPYTGRCLLNTKITGDDAPGETWHIVFTTEGEVPYREGQSIGVIPEGIDKNGKPHKLRLYSIASSAIGDFGDSKTVSLCVKRLVYTNDGGEIVKGVCSNFLCDLKPGDEAKITGPVGKEMLMPKDPNATIIMLGTGTGIAPFRSFLWKMFFEEHEDYKFNGLAWLFLGVPTSSSLLYKEEFEKMKEKNPDNFRLDFAVSREQTNEKGEKMYIQTRMAEYAEELWELLKKDNTFVYMCGLKGMEKGIDDIMVSLAAKDGIDWLEYKKQLKRSEQWNVEVY
B3: ATP-dependent zinc metalloprotease FTSH 1, chloroplastic (enzyme, UniProt Q39102 87-716)
chain: VVDEPASPSVVIESQAVKPSTPSPLFIQNEILKAPSPKSSDLPEGSQWRYSEFLNAVKKGKVERVRFSKDGSVVQLTAVDNRRASVIVPNDPDLIDILAMNGVDISVSEGESSGNDLFTVIGNLIFPLLAFGGLFLLFRRAQGGPGGGPGGLGGPMDFGRSKSKFQEVPETGVSFADVAGADQAKLELQEVVDFLKNPDKYTALGAKIPKGCLLVGPPGTGKTLLARAVAGEAGVPFFSCAASEFVELFVGVGASRVRDLFEKAKSKAPCIVFIDEIDAVGRQRGAGMGGGNDEREQTINQLLTEMDGFSGNSGVIVLAATNRPDVLDSALLRPGRFDRQVTVDRPDVAGRVKILQVHSRGKALGKDVDFDKVARRTPGFTGADLQNLMNEAAILAARRELKEISKDEISDALERIIAGPEKKNAVVSEEKKRLVAYHEAGHALVGALMPEYDPVAKISIIPRGQAGGLTFFAPSEERLESGLYSRSYLENQMAVALGGRVAEEVIFGDENVTTGASNDFMQVSRVARQMIERFGFSKKIGQVAVGGPGGNPFMGQQMSSQKDYSMATADIVDAEVRELVEKAYKRATEIITTHIDILHKLAQLLIEKETVDGEEFMSLFIDGQAELYIS
B4: Photosystem II 10 kDa polypeptide, chloroplastic (protein, UniProt P27202 42-140)
chain: SGVKKIKTDKPFGINGSMDLRDGVDASGRKGKGYGVYKYVDKYGANVDGYSPIYNENEWSASGDVYKGGVTGLAIWAVTLAGILAGGALLVYNTSALAQ
B5: UPF0603 protein At1g54780, chloroplastic (protein, UniProt Q9ZVL6 85-285)
chain: SEFNILNDGPPKETYVVDDAGVLSRVTKSDLKKLLSDLEYRKKLRLNFITVRKLTSKADAFEYADQVLEKWYPSIEEGNNKGIVVLITSQKEGAITGGPAFIEAVGENILDATVSENLPVLATDEKYNEAVYSSAKRLVAAIDGQPDPGGPTVKDSKRESNFKTKEETDEKRGQFSLVVGGLLVIAFVVPMAQYFAYVSRK
B6: Ferredoxin--NADP reductase, leaf isozyme 2, chloroplastic (enzyme, UniProt Q8W493 58-369)
chain: ITTETDTPTPAKKVEKVSKKNEEGVIVNRYRPKEPYTGKCLLNTKITADDAPGETWHMVFSHQGEIPYREGQSVGVIADGIDKNGKPHKVRLYSIASSALGDLGNSETVSLCVKRLVYTNDQGETVKGVCSNFLCDLAPGSDVKLTGPVGKEMLMPKDPNATVIMLATGTGIAPFRSFLWKMFFEKHDDYKFNGLAWLFLGVPTTSSLLYQEEFDKMKAKAPENFRVDYAISREQANDKGEKMYIQTRMAQYAAELWELLKKDNTFVYMCGLKGMEKGIDDIMVSLAANDGIDWFDYKKQLKKAEQWNVEVY
B7: Chlorophyll synthase, chloroplastic (enzyme, UniProt Q38833 58-387)
chain: AAETDTDKVKSQTPDKAPAGGSSINQLLGIKGASQETNKWKIRLQLTKPVTWPPLVWGVVCGAAASGNFHWTPEDVAKSILCMMMSGPCLTGYTQTINDWYDRDIDAINEPYRPIPSGAISEPEVITQVWVLLLGGLGIAGILDVWAGHTTPTVFYLALGGSLLSYIYSAPPLKLKQNGWVGNFALGASYISLPWWAGQALFGTLTPDVVVLTLLYSIAGLGIAIVNDFKSVEGDRALGLQSLPVAFGTETAKWICVGAIDITQLSVAGYLLASGKPYYALALVALIIPQIVFQFKYFLKDPVKYDVKYQASAQPFLVLGIFVTALASQH

What follows are molecules tested against T1, Thylakoid rhodanese-like protein (TROL) with HA and FLAG tags (TROL-HA-FLAG) (Arabidopsis thaliana) (UniProt Q9M158) (assay: affinity purification with mass spectrometry; FLAG/HA tandem affinity purification of TROL-HA-FLAG from thylakoids of TROL OX Arabidopsis solubilised in 1% DDM; anti-FLAG resin overnight at 4 °C, RIPA wash, 3 × FLAG peptide elution, anti-HA resin 1.5 h at 4 °C, elution with 8 M urea and Laemmli buffer; GeLC-MS/MS; three independent trials, protein threshold 99.9%, peptide threshold 95%).
T1 sequence: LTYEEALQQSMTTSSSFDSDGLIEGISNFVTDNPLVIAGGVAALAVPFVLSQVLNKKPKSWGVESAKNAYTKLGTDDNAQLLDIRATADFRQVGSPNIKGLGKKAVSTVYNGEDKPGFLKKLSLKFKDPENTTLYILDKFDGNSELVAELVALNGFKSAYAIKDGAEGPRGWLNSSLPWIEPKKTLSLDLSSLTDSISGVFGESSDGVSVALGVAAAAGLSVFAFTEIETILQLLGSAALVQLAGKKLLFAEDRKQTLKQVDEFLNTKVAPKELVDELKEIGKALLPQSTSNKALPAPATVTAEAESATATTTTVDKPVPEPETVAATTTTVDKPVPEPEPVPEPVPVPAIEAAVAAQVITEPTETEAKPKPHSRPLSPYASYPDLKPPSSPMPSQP

Molecule | binding
Photosystem I reaction center subunit N, chloroplastic (from UniProt P49107 87-171) | binds
Probable histone H2A variant 3 (from UniProt Q9C944 1-134) | binds
PSAF (Arabidopsis thaliana) | binds
Photosystem I chlorophyll a/b-binding protein 3-1, chloroplastic (from UniProt Q9SY97 40-273) | binds
Photosystem I chlorophyll a/b-binding protein 2, chloroplastic (from UniProt Q9SYW8 44-257) | binds
Photosystem I subunit O (from UniProt Q949Q5 52-140) | binds
AT4g28750 (from UniProt Q9S831 45-143) | binds
Chlorophyll a-b binding protein 6, chloroplastic (from UniProt Q01667 36-241) | binds
Chlorophyll a-b binding protein 4, chloroplastic (Arabidopsis thaliana) | binds
Chlorophyll a-b binding protein, chloroplastic (GN = AXX17_At1g16590) (Arabidopsis thaliana) | binds
Photosystem I reaction center subunit II-1, chloroplastic (from UniProt Q9S7H1 46-208) | binds
HCF244 (Arabidopsis thaliana) | binds
ATP synthase subunit alpha, chloroplastic (from UniProt P56757 1-507) | binds
Tubulin beta chain (GN = AXX17_At5g62240) (Arabidopsis thaliana) | binds
CaS (Arabidopsis thaliana) | binds
GTP binding Elongation factor Tu family protein (GN = At1g07930) (from UniProt Q8W4H7 1-449) | binds
Chlorophyll a-b binding protein 3, chloroplastic (from UniProt Q9S7M0 23-265) | binds
APE1 (Arabidopsis thaliana) | binds
Cytochrome b6 (from UniProt P56773 1-215) | binds
Photosystem I P700 chlorophyll a apoprotein A1 (from UniProt P56766 1-750) | binds
Actin-7 (from UniProt P53492 1-377) | binds
Photosystem I reaction center subunit V, chloroplastic (from UniProt Q9S7N7 61-160) | binds
Photosystem I P700 chlorophyll a apoprotein A2 (from UniProt P56767 1-734) | binds
B1 | binds
B2 | binds
B3 | binds
B4 | binds
B5 | binds
B6 | binds
B7 | binds

These are yes or no findings as the source states them, for the method shown. Binding seen in cells or lysates may run through a third protein. These calls come from enrichment with a bait or labelling near it, and not all partners need be listed. Sequences can lack the tags named with a protein.
